# Primary screen of a compound library

From ChEMBL document CHEMBL3988442, “University of Dundee, Small-Polar-MMV Screening Library” (2021).

Values are the deposited “Percent Effect”, in %. The record does not define 0% and 100%; most values in the screen are far below 50% and negative numbers occur (in some assays of this library far below -100). This is an unselected part of the compounds tested. Two or more numbers in one place are separate tests of the same structure; such repeats can differ widely.

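Viability assay of Plasmodium falciparum sporozoites; the read-out is not stated. The concentration is filed as 10 mM, unlikely as a test dose, so the dose is not known. Direction is inferred from retests: higher values go with lower viability. Strong results were mostly tested again. About 34,000 compounds were tested under these conditions; 0.84% (about 280) showed 50% or more at least once.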

- CC(C)c1n[nH]c(C2CN(C(=O)Cn3ccccc3=O)CCO2)n1 (stereo not given) : 6.062%
- CC1Cn2c(nc3c2c(=O)[nH]c(=O)n3C)O1 (stereo not given) : 1.63%
- N#Cc1cccc(S(=O)(=O)NC2CCN(Cc3ccccc3)C2=O)c1 (stereo not given) : -8.799%
- CN(C)CCOCC1CN(Cc2ccncc2)Cc2nnn(C)c21.O=C(O)C(F)(F)F.O=C(O)C(F)(F)F.O=C(O)C(F)(F)F (stereo not given) : -6.228%
- Fc1ccc(F)c(CN2CCC(c3n[nH]c4ncccc34)CC2)c1.O=C(O)CC(O)(CC(=O)O)C(=O)O : 3.86%
- Cc1ccc(NC2CCN(C(=O)Cc3ccc(C#N)cc3)CC2)nn1 : 7.84%
- [H][C@]12CC[C@]([H])(CN(Cc3ccccc3C#N)C1)N(CC(=O)N(C)C)C2=O : -6.579%
- COc1ccnc(N2CCN(C(=O)c3cccc(C#N)c3)CC2)n1 : -1.885%
- Cc1nc(O)cc([C@@H]2CN(C(=O)C3CC3)C[C@H]2c2ccccc2F)n1 : 8.803%
- CCOCC(=O)N1CCC(Oc2ccc(C(F)(F)F)cn2)CC1 : 1.006%
- Cc1ccc(Cl)cc1N1CCC(CNC(=O)Cn2cccn2)C1 (stereo not given) : 3.224%
- O=C(O)C(F)(F)F.[H][C@@]12CN(Cc3ccccn3)C[C@]1([H])CN(C(=O)Cc1cccc(F)c1)C2 : 7.443%
- CCNC(=O)c1cnc(Cc2ccc(F)cc2)s1 : 0.6438%
- C[C@H]1CN(C(=O)c2ccoc2)C[C@@]12CCN(CCN(C)C)C2=O.O=C(O)C(F)(F)F : 3.61%
- Cc1cccc(N2CCOCC3(C2)CN(c2ccoc2)C(=O)CO3)n1.O=C(O)C(F)(F)F (stereo not given) : 5.394%
- Cc1cnn(CC2CN(Cc3cccc(C(N)=O)c3)CCO2)c1 (stereo not given) : 4.684%
- O=C(Cc1ccc(F)cc1)NCCNCC1CNc2ccnn2C1 (stereo not given) : -0.3529%
- CCc1nccc(CN2CCC(CNC(=O)c3occc3C)C2)n1 (stereo not given) : 6.579%
- CC(C)(C)c1ncc(CNc2ccccc2SCCC(N)=O)s1 : 40.9% and 30.94%
- O=C1c2cccnc2OC(CN2CCOCC2)CN1Cc1cccs1 (stereo not given) : -7.368%
- NC(=O)C1(c2cnccn2)CCCN1Cc1cccc(Cl)c1 (stereo not given) : -0.2665%
- COc1ccccc1C1CNC(=O)c2nc(-c3cn(C)nc3C)[nH]c2C1 (stereo not given) : 5.182%
- Nc1nc(CN2CCCC(Cn3cncn3)C2)nc2ccccc12 (stereo not given) : 10.11%
- CC(C)N1CCCC1c1csc(N)n1 (stereo not given) : 7.853%
- CS(=O)(=O)N1CCC(c2cnc(-c3cn[nH]c3)cn2)CC1 : 1.583%
- CC(=O)N1CCc2[nH]cnc2C1C1=CCCN(CCn2cccc2)C1 (stereo not given) : 3.846%
- COc1ccc(CN(C)[C@@H]2CN(S(=O)(=O)C(C)C)C[C@H]2O)cc1 : 11.07%
- CC(C)c1nccn1-c1cncc(C2CCCN(C3CCCCC3)C2)n1 (stereo not given) : 19.08%
- CC(NC(=O)NCCCc1n[nH]c(N)c1C#N)c1cccc(Cl)c1 (stereo not given) : 13.05%
- COc1ccc(NC(C)C(=O)NCCc2cccs2)cc1F (stereo not given) : -2.007%
- Cc1cnn(C2CCCN(C(=O)c3cccc4c3OCO4)C2)c1 (stereo not given) : 1.653%
- CN(C)C(=O)N1CCC2(CCCN(Cc3cnn(C)c3)C2)C1.O=C(O)C(F)(F)F (stereo not given) : 4.8%
- O=C(c1cnn(-c2ccccc2Cl)c1)N1CCN(CCO)CC1 : 14.55%
- COc1ncccc1NC(=O)C1CC(=O)N(Cc2ccccn2)C1 (stereo not given) : 1.466%
- CC(C)(NC(=O)c1scnc1Cl)c1ccccc1 : -2.086%
- OC(COCc1cccs1)CN1CCC(c2ccn[nH]2)CC1 (stereo not given) : -10.12%
- O=C(Nc1ccc(CCN2CCOCC2)cc1)C1CCC1 : -1.877%
- COc1ccc(C2CCCN2C(=O)NCCn2ccnc2)cc1 (stereo not given) : 3.159%
- CC(C)N(CC(N)=O)Cc1csc(C(C)(C)C)n1 : 6.605%
- O=C(O)C(F)(F)F.O=C(O)C(F)(F)F.O=C(O)C(F)(F)F.[H][C@]12COC[C@H](N3CCN(C)CC3)[C@@]1([H])CN(Cc1cc(C)cc(C)c1)C2 : 13.28%
- Cc1nccc(C(=O)N2CCCC(c3cc(C(F)(F)F)[nH]n3)C2)n1 (stereo not given) : 8.419%
- CCOc1ccccc1-c1noc(CN2CCN(CCOC)CC2)n1 : -2.676%

Some entries from above, unchanged:

Result for [H][C@]12CC[C@]([H])(CN(Cc3ccccc3C#N)C1)N(CC(=O)N(C)C)C2=O was -6.579%.
Result for CC(C)(NC(=O)c1scnc1Cl)c1ccccc1 was -2.086%.